Experiment [1] addresses KLF4, full-length, unlabelled (human) (UniProt O43474).
Experiment [2] has as its target KLF4-FlAsH (FlAsH-labelled full-length KLF4) (human) (UniProt O43474).

Chains of the proteins cited; added tags and fusions are not shown. Lines headed by an entry give the natural chain unless they say otherwise; changes in a name come on top. A line that says so, or that is headed by a name, gives the form on record, which may keep a tag or linker.
KLF4-FlAsH (FlAsH-labelled full-length KLF4) (O43474-1, form named): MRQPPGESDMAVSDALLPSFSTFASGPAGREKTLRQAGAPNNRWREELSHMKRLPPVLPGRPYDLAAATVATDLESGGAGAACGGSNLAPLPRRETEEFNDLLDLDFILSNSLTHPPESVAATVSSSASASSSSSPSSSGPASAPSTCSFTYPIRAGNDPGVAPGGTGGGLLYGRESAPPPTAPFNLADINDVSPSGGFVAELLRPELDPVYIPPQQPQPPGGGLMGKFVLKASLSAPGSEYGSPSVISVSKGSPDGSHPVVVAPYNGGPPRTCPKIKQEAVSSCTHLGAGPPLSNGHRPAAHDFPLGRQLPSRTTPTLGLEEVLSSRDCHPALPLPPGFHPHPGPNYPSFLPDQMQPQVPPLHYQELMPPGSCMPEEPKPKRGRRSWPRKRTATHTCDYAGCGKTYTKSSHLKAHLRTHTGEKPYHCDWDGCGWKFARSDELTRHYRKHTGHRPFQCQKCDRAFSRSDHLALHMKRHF

No constants are given. Whether binding was seen depends on the method and setting.

Consider “KLF4, full-length, unlabelled (from UniProt O43474-1 1-479)”, for which the binding entry in experiment [1] is reported as “no binding (tested: 5 µM)”.

Consider “KLF4-FlAsH (FlAsH-labelled full-length KLF4) (from UniProt O43474-1 1-479)”, for which the binding entry in experiment [2] is recorded as “no binding”.

(Values after article PMC3484126.)
